The list shows a part of the results, in another mix than the full data. For some assays here: At the low end of the ranking the order means little. The list shows a part of the results. For some assays here: The exact form of the protein is not confirmed.

Protein sequences, listed by entry. Tags and fused reporters are not part of them. Lines headed by an entry give the natural chain unless they say otherwise; changes in a name come on top.
UniProt P50549: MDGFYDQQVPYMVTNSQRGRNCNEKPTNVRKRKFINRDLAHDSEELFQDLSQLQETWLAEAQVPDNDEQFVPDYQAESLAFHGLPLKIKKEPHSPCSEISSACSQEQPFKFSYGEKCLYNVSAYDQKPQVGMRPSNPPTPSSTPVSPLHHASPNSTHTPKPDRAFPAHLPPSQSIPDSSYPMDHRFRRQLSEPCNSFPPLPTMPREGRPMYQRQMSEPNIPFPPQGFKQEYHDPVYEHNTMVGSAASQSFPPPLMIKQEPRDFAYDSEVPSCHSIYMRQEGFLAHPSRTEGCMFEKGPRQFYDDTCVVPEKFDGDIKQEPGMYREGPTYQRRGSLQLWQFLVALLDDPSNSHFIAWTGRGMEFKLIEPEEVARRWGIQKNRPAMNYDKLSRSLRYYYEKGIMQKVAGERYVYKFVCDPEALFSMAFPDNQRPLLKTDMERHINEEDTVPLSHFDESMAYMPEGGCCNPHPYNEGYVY
UniProt P32519: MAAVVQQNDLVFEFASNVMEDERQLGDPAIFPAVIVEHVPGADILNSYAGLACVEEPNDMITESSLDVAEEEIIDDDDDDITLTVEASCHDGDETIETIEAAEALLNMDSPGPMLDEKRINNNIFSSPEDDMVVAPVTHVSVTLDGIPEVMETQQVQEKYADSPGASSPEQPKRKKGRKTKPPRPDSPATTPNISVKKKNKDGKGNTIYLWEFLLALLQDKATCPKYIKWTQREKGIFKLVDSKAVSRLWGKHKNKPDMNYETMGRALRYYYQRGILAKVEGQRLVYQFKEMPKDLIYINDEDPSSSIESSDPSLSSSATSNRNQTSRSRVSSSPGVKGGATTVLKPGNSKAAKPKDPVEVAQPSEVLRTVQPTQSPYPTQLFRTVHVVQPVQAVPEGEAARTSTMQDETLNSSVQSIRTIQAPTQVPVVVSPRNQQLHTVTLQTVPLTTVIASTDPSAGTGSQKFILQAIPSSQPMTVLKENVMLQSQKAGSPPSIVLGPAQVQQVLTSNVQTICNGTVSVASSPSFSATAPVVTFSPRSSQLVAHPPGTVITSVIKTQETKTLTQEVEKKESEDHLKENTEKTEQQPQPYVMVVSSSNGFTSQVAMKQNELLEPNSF

Experimental findings from article PMC7862700 are described below.

Test in all cases: DAPPL (digital affinity profiling via proximity ligation, sequencing)
Holding throughout (conditions): 10 mM Tris-HCl pH 7.5, 50 mM NaCl, 1 mM DTT, 4% glycerol, room temperature, 30 min; GST-TFs on glutathione beads, 16-mer random dsDNA library, 0.1% …; high values mean tight binding; double strand, one strand shown; scale: fold enrichment (6-mer frequency, TF over GST control)

The target of one test is T1, ELK4 (UniProt P28324-2).
T1 sequence: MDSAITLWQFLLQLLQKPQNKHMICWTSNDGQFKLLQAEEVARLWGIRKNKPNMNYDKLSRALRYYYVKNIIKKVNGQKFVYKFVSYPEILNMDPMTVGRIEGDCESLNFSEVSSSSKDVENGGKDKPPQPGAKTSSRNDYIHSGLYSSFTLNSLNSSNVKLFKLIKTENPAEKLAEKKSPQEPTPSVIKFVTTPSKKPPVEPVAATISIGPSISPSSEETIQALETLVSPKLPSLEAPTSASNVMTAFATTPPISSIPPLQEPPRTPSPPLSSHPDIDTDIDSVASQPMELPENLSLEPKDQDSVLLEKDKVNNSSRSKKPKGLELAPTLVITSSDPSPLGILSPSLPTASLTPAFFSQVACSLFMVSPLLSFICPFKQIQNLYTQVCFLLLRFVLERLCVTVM

The next test addresses T2, ETV4 (UniProt P43268).
T2 sequence: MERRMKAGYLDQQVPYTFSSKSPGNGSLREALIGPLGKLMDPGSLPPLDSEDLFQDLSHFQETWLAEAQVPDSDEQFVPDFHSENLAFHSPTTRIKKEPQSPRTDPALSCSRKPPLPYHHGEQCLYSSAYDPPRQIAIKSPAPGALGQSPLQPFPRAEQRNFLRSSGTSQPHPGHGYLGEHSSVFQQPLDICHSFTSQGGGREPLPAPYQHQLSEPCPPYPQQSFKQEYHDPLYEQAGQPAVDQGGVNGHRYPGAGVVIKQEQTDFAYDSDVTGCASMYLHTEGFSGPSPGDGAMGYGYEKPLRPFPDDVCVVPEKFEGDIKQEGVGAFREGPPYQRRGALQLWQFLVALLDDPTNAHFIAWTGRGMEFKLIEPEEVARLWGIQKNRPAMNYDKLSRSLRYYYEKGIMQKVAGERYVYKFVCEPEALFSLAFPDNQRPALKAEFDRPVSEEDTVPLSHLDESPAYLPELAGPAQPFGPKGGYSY

The target in a further test is ETV1 (UniProt P50549).
The target of another test is T3, ERF (UniProt P50548).
T3 sequence: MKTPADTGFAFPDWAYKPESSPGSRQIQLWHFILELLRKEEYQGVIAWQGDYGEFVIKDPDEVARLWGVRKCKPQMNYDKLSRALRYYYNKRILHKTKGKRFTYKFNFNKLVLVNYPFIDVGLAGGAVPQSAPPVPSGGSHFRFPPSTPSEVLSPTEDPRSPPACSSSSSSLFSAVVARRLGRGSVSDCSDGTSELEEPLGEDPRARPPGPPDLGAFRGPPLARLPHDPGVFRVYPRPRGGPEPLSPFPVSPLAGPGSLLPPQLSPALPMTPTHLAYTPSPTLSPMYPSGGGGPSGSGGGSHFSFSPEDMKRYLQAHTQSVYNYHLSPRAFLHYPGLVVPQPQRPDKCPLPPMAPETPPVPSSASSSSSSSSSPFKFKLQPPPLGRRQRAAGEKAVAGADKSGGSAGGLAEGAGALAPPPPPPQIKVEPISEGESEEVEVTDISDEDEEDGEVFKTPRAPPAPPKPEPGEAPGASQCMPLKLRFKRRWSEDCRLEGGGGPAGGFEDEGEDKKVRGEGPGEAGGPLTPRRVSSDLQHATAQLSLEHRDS

A further test has as its target ELF1 (UniProt P32519).

For the sequence CAATAT, the binding signal with ELK4 is 1.31; with ETV4, 1.26; with ETV1 it was 1.27.
In the same order, the values of CTGCCC are 1.42, 1.31 and 1.2.
The matching figures for AACATC: 1.41, 1.44 and 1.43.
As to AACGTA, the binding signal with ELK4 turned out to be 0.98; with ETV4, 1.04; with ETV1, 1.06; in the test with ERF it was 1.05.
In the case of CATGCT, the binding signal with ELK4 was 1.3; with ETV4 it was 1.22; with ETV1, 1.19.
With TCTGCC, the binding signal in the test with ELK4 was 1.59; with ETV4 it was 1.41; in the test with ETV1 it was 1.36.
With AAATGG, the binding signal in the test with ELK4, with ETV4 and with ETV1 was 1.5 in each case.
As to AACGTC, the binding signal stood at 1.05 in the test with ELF1; 0.959 with ELK4; 1.09 with ETV4; 1.11 with ETV1; 1.01 with ERF.
As for TTACTC, the values for the binding signal with ELK4, with ETV4 and with ETV1 were 1.34, 1.32 and 1.32, respectively.
With CTAAAA, the binding signal with ELK4 was 1.21; with ETV4 it was 1.09; in the test with ETV1, 1.19.
The matching figures for CTCAAT: 1.3, 1.29 and 1.27.
The matching figures for ACTTTA: 1.15, 1.22 and 1.21.
The matching figures for CTCTAA: 1.22, 1.28 and 1.32.
For the sequence CTAATA, the binding signal with ELK4 came to 1.1; with ETV4, 1.13; with ETV1, 1.22; with ERF, 1.27.
With AACGAA, the binding signal was found to be 1.13 with ELK4, 1.14 in the test with ETV4 and 1.09 with ETV1.
As to GATTAT, the binding signal in the test with ELF1 was 1.02; with ELK4 it was 1.06; with ETV4 it was 0.998; with ETV1, 1.06; with ERF, 1.06.
Regarding ATTCAG, the binding signal with ELK4 was 1.08; with ETV4, 1.14; with ETV1, 1.07.
Take CTCGTA: the binding signal with ELF1 turned out to be 1.32; in the test with ELK4, 1.16; with ETV4 it was 1.25; in the test with ETV1, 1.35; with ERF, 1.23.
For CCTTTC, the values for the binding signal with ELK4, with ETV4 and in the test with ETV1 were 1.64, 1.63 and 1.5, respectively.
In the same order, the values of TCTGCT are 1.57, 1.28 and 1.32.
In the case of AAGAAA, the binding signal with ELK4 was found to be 1.18; with ETV4 it was 1.04; in the test with ETV1 it was 1.2.
As to GTTTTC, the binding signal turned out to be 0.997 with ELK4, 1.23 in the test with ETV4, 1.13 with ETV1 and 1.34 in the test with ERF.
Turning to TTCACT, the binding signal with ELK4 was found to be 1.42; with ETV4, 1.38; with ETV1, 1.33.
The matching figures for GAACAT: 0.978, 1 and 0.989.
In the same order, the values of TTTTGA are 1.22, 1.14 and 1.13.
For the sequence TGAATT, the binding signal with ELK4 came to 1.01; with ETV4, 1.19; with ETV1, 1.23.
The matching figures for CCTAAA: 1.29, 1.26 and 1.31.
On to CGAAGC, for which the binding signal with ELK4 stood at 1.48; in the test with ETV4, 1.31; with ETV1, 1.29.
As for TCTAAG, the binding signal is 1.2 with ELK4, 1.18 with ETV4 and 1.25 with ETV1.
As to TAGTCT, the binding signal stood at 0.947 with ELK4, 1.13 with ETV4, 1.01 with ETV1 and 1.17 in the test with ERF.
As to GGCTCT, the binding signal was 1.22 with ELK4, 1.25 with ETV4 and 1.42 in the test with ETV1.
In the same order, the values of GAATAA are 1.04, 1.06 and 1.03.
Regarding TACATG, the binding signal in the test with ELK4 was found to be 1.24; with ETV4 it was 1.29; with ETV1, 1.21; with ERF it was 1.34.
Turning to TACACG, the binding signal was 1.16 with ELF1, 1.21 with ELK4, 1.15 with ETV4 and 1.16 in the test with ETV1.
As to TGCGCT, the results for the binding signal with ELK4, with ETV4 and with ETV1 were 1.46, 1.25 and 1.17, respectively.
Take ACGATC: the binding signal in the test with ELF1 is 1.09; with ELK4 it was 0.964; with ETV4 it was 1.05; with ETV1 it was 1.05; in the test with ERF, 1.16.
CCTGGG: the binding signal in the test with ELK4 is 1.08; in the test with ETV4, 1.38; in the test with ERF, 0.976.
Consider TAACTC, for which the binding signal with ELF1 was determined as 1.29; with ELK4 it was 1.34; with ETV4 it was 1.19; with ERF, 1.29.
With TAACGA, the binding signal worked out at 1.09 in the test with ELK4, 1.12 with ETV4 and 1.03 with ERF.
For TGCTCT, the binding signal in the test with ELF1 worked out at 1.34; with ELK4, 1.38; in the test with ETV4 it was 1.45; in the test with ETV1 it was 1.33.
The matching figures for ACCTGC: 1.54, 1.59, 1.55 and 1.57.
Regarding ATACCA, the values for the binding signal with ELF1, with ELK4 and with ETV4 were 1.06, 0.992 and 1.03, respectively.
For the sequence AAACCA, the binding signal in the test with ELF1 was determined as 1.18; with ELK4, 1.26; with ETV4, 1.19; in the test with ERF, 1.16.
Consider CCGCTA, for which the binding signal with ELK4 worked out at 1.3; with ETV4, 1.33; with ERF, 1.38.
Consider CCATTT, for which the binding signal was 1.27 with ELF1, 1.41 with ELK4 and 1.35 in the test with ETV4.
On to TGCCGC, for which the binding signal with ELK4 was found to be 1.23; with ETV4, 1.27; in the test with ERF it was 1.32.
The matching figures for ACTGCT: 1.54, 1.39 and 1.27.
Regarding TCTTTG, the binding signal with ELF1 came out at 1.25; in the test with ELK4, 1.2; with ETV4 it was 1.15; with ETV1, 1.1.
With TGGTAC, the figures for the binding signal with ELK4, in the test with ETV4 and with ERF were 1.11, 1.2 and 1.11, respectively.
Turning to ACTTCC, the binding signal with ELK4 worked out at 6.63; with ETV4, 10; with ERF it was 7.03.
ACCGAT: the binding signal was found to be 1.17 with ELF1, 1.15 in the test with ELK4, 1.21 with ETV4 and 1.12 with ETV1.
Regarding TGCTCA, the binding signal in the test with ELK4 turned out to be 1.24; in the test with ETV4 it was 1.42; in the test with ERF it was 1.5.
The matching figures for GATGAC: 1.42, 1.63 and 1.45.
Regarding CATGAA, the binding signal in the test with ELF1 was determined as 1.06; with ELK4 it was 1.11; with ETV4, 1.08; with ERF it was 1.02.
As for AACTCG, the binding signal with ELK4 was determined as 1.29; in the test with ETV4, 1.34; with ERF it was 1.44.
Regarding TAACAT, the results for the binding signal with ELF1, with ELK4 and in the test with ETV4 were 1.35, 1.29 and 1.28, respectively.
In the case of GTAACT, the binding signal with ELF1 worked out at 1.22; with ELK4, 1.26; with ETV4, 1.15; with ERF it was 1.22.
As for GCCCCT, the values for the binding signal in the test with ELK4, with ETV4 and in the test with ERF were 1.37, 1.41 and 1.27, respectively.
ATTGAC: the binding signal was 1.19 with ELF1, 1.34 with ELK4 and 1.18 with ETV4.
In the same order, the values of CACATT are 1.21, 1.13 and 1.21.
As for CGGCTT, the binding signal in the test with ELF1 stood at 1.13; with ELK4, 1.09; with ETV4, 1.15; with ETV1 it was 1.2.
Take CTTTAA: the binding signal with ELK4 worked out at 1.28; with ETV4 it was 1.25; in the test with ERF, 1.32.
The matching figures for TTGATA: 1.42, 1.23 and 1.24.
With TACAAG, the binding signal with ELF1 worked out at 1.06; with ELK4 it was 1.16; with ETV4, 1.04; with ETV1 it was 1.06.
Consider CGATAC, for which the figures for the binding signal with ELF1, in the test with ELK4 and with ETV4 were 1.19, 1.15 and 1.14, respectively.
Turning to ATTTCC, the figures for the binding signal in the test with ELK4, with ETV4 and with ERF were 3.35, 3.91 and 3.64, respectively.
The matching figures for CTGTTT: 1.29, 1.4 and 1.37.
For TCGATT, the binding signal with ELF1 came to 1.12; with ELK4, 1.14; with ETV4, 0.984.
Consider TGGTTC, for which the binding signal is 1.28 with ELF1, 1.36 with ELK4, 1.36 with ETV4 and 1.38 with ETV1.
For the sequence TTTGCT, the binding signal with ELF1 stood at 1.21; in the test with ELK4, 1.36; with ETV4, 1.25; with ERF it was 1.39.
For the sequence GCTATT, the binding signal in the test with ELF1 worked out at 1.26; with ELK4, 1.56; with ETV4, 1.28.
As to TAAAGT, the binding signal with ELF1 came out at 1.18; in the test with ELK4, 1.27; in the test with ETV4, 1.16.
On to AAATTC, for which the binding signal was determined as 1.15 with ELK4, 1.3 with ETV4 and 1.29 with ERF.
As to AACGTT, the binding signal in the test with ELK4 was 1.02; with ETV4, 1.14; with ERF, 0.966.
CTGCCA: the figures for the binding signal with ELF1, in the test with ELK4 and in the test with ETV4 were 1.23, 1.33 and 1.16, respectively.
With ATGCAT, the binding signal with ETV4 is 1.2.
Same read-out and setting: with GTCTTA the figure was 1.13.
As for ATGTCC, in the test with ETV4, the binding signal was 1.59.
